The target of this assay is T1, UDP‐glucose dehydrogenase (UGDH) (human (endogenous in human primary chondrocytes)) (UniProt O60701).
T1 sequence: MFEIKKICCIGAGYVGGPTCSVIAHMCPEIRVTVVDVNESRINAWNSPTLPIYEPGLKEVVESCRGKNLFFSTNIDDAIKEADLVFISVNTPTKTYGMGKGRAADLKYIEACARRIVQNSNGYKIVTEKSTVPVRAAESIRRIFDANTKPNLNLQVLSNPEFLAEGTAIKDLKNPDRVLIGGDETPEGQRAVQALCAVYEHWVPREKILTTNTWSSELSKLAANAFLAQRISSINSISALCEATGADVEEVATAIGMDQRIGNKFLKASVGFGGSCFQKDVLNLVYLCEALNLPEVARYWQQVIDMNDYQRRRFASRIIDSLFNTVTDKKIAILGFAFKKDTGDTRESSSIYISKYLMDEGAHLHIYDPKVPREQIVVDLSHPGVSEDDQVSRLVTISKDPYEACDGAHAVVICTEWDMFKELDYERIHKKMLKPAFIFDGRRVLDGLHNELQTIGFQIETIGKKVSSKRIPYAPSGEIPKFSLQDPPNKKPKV
Kind of assay: affinity purification with mass spectrometry; UGDH purified by CoIP from chondrocytes, followed by MS analysis.

By UniProt entry, the sequences of proteins in these tests, tags left out.
UniProt P42224: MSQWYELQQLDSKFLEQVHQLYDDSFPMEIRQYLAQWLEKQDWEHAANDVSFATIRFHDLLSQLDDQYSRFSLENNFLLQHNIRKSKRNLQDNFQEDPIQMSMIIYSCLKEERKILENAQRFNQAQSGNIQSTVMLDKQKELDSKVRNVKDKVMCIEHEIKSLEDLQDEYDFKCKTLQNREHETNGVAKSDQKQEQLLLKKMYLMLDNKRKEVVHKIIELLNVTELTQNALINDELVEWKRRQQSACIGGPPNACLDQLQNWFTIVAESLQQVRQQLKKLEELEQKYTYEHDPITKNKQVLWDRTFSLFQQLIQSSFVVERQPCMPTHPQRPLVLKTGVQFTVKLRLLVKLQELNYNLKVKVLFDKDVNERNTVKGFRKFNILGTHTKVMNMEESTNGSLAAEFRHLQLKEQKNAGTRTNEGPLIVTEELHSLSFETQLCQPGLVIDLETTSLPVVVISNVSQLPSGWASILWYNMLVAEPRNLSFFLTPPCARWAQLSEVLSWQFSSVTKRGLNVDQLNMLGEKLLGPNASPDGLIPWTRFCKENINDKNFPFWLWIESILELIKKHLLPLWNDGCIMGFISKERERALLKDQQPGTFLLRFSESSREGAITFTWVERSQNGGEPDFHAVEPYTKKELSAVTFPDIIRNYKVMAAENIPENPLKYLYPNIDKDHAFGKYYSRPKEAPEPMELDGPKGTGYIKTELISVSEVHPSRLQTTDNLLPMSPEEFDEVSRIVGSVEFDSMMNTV

No constants are given. Whether binding was seen depends on the method and setting. In cells and extracts the contact can be indirect. Here binding means that the protein was enriched with, or labelled near, the bait; the list need not be complete. Where a sequence is shown, tags or fusion partners need not be part of it.

For the substance “signal transducer and activator of transcription 1 (STAT1) (from UniProt P42224 1-750)”, the binding result is “binds”.

The values are drawn from article PMC12120796.
